Results reported in article PMC6663880.
Where a chain is given by its changes, count along the chain named. Names and notes keep the numbering of the source. Results are given in words; binding and its absence hold for the method and conditions named. In cells and extracts the contact can be indirect. Some entries that bind do so weakly or less than the wild type. Sequences can lack the tags named with a protein. One block for each molecule: values may come before it.

Assays:
RHBDL4mycFLAG (human) [1] = biological target: T1, RHBDL4mycFLAG (human) (UniProt Q8TEB9); assay: co-IP; HEK293 cells transfected with RHBDL4mycFLAG variants; lysis in 1% Triton, 50 mM Tris pH 7.4, 150 mM NaCl; anti-FLAG M2 beads; additional 100 mM NaCl in the wash buffer; blots with anti-p97/VCP, anti-ubiquitin and anti-Lys63 linkage-specific antibodies for the endogenous partners
T1 sequence: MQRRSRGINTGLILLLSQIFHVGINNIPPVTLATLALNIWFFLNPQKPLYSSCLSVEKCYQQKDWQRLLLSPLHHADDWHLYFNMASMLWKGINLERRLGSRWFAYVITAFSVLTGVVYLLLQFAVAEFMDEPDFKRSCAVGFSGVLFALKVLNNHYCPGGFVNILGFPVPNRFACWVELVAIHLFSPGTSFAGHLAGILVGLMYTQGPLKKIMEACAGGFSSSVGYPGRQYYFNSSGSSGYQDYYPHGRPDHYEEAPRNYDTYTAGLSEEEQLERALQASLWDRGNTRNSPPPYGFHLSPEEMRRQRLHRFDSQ

[2] = biological target: T2, RHBDL4mycFLAG site 7 mutant (Y261F) (human) (UniProt Q8TEB9); assay: as above
T2 sequence: T1 sequence with Y261F

RHBDL4mycFLAG (human) [3] = biological target: T1, RHBDL4mycFLAG (human); assay: co-IP; HEK293 cells co-transfected with mCherry-PTP1B variants and RHBDL4mycFLAG; lysis in 1% Triton, 50 mM Tris pH 7.4, 150 mM NaCl, 2 mM sodium pervanadate, 1 mM sodium fluoride; anti-FLAG M2 beads; blot with anti-mCherry; in washout experiments 4 mM Na3VO4 in the wash buffer

binding (RHBDL4mycFLAG (human) [1]): binds | binding [2]: binds
Molecule: p97/VCP (valosin-containing protein) (from UniProt P55072 1-806)

binding (RHBDL4mycFLAG (human) [3]): binds weakly
B1: mCherry-PTP1B WT (enzyme, UniProt P18031 1-435)
chain: MEMEKEFEQIDKSGSWAAIYQDIRHEASDFPCRVAKLPKNKNRNRYRDVSPFDHSRIKLHQEDNDYINASLIKMEEAQRSYILTQGPLPNTCGHFWEMVWEQKSRGVVMLNRVMEKGSLKCAQYWPQKEEKEMIFEDTNLKLTLISEDIKSYYTVRQLELENLTTQETREILHFHYTTWPDFGVPESPASFLNFLFKVRESGSLSPEHGPVVVHCSAGIGRSGTFCLADTCLLLMDKRKDPSSVDIKKVLLEMRKFRMGLIQTADQLRFSYLAVIEGAKFIMGDSSVQDQWKELSHEDLEPPPEHIPPPPRPPKRILEPHNGKCREFFPNHQWVKEETQEDKDCPIKEEKGSPLNAAPYGIESMSQDTEVRSRVVGGSLRGAQAASPAKGEPSLPEKDEDHALSYWKPFLVNMCVATVLTAGAYLCYRFLFNSNT

Further lines, the molecule ahead of its results:

B2: mCherry-PTP1B D181A (enzyme, UniProt P18031 1-435)
chain: B1 chain with D181A
binding (RHBDL4mycFLAG (human) [3]): binds

B3: mCherry-PTP1B D181A/Y46F (enzyme, UniProt P18031 1-435)
chain: B1 chain with Y46F, D181A
binding (RHBDL4mycFLAG (human) [3]): binds
